# Results are given in words; binding and its absence hold for the method and conditions named. Binding seen in cells or lysates may run through a third protein. Some binding calls cover weakened binding; strength is not graded here.
# Protein sequences, listed by entry. Tags and fused reporters are not part of them. Lines headed by an entry give the natural chain unless they say otherwise; changes in a name come on top.
# UniProt Q99814: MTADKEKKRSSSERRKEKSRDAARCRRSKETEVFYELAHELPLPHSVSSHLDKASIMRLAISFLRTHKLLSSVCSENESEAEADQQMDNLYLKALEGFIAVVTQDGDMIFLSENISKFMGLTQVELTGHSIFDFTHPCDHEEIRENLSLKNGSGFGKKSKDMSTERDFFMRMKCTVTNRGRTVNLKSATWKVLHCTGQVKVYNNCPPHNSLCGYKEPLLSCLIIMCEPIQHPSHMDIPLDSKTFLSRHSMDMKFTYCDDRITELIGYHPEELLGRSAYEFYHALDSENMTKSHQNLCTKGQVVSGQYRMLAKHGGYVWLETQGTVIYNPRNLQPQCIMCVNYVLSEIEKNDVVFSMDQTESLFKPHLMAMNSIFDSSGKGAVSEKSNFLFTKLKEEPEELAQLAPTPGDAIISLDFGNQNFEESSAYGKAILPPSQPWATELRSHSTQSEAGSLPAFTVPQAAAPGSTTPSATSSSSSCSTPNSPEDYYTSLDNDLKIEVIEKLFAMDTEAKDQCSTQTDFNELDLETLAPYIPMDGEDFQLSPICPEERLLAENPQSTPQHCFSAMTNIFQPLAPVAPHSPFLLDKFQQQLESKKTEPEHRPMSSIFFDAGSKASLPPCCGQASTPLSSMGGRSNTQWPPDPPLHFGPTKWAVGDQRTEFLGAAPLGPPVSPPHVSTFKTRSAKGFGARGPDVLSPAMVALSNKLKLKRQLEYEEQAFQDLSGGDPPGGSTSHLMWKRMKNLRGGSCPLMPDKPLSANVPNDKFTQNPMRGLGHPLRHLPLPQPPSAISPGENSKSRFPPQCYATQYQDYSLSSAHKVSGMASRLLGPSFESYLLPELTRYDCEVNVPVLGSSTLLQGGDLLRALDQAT
# UniProt P10451: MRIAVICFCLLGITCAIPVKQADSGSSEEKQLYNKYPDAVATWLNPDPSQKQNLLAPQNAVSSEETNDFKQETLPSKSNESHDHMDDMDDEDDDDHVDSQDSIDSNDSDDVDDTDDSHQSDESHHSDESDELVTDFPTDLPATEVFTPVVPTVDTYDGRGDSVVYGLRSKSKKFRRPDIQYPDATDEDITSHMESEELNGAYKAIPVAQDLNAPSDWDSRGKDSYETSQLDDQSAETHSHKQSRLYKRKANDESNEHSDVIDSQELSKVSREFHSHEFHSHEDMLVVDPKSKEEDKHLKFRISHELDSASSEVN
# What was measured:
# HA-HIF2α = HA-HIF2α (UniProt Q99814); assay: co-IP; Co-IP analysis of V5-iOPN and HA-HIF2α proteins; cells and direction not told in the main text
# [1] = biological target: endogenous HIF2α (human (endogenous in 293T, Hep3B, HCCLM3)) (UniProt Q99814); assay: co-IP; lysates from 293T, Hep3B and HCCLM3 cells immunoprecipitated with denoted antibodies; HIF2α and OPN levels then assessed; endogenous proteins
binding (HA-HIF2α),binding [1],Substance
binds,–,V5-iOPN (intracellular form of human OPN) (from UniProt P10451 16-314) (domain or fragment)
–,binds,endogenous intracellular/nuclear osteopontin (iOPN) (from UniProt P10451 17-314)

# — paper PMC5261026
